# Assay results published in PubChem BioAssay (EPA / NIEHS).
# The chains behind the UniProt entries cited, without tags or fusion partners. Where a name states a change or a piece, a line headed by the entry shows the natural chain unless it says otherwise.
# UniProt P27361, whole entry, looked up: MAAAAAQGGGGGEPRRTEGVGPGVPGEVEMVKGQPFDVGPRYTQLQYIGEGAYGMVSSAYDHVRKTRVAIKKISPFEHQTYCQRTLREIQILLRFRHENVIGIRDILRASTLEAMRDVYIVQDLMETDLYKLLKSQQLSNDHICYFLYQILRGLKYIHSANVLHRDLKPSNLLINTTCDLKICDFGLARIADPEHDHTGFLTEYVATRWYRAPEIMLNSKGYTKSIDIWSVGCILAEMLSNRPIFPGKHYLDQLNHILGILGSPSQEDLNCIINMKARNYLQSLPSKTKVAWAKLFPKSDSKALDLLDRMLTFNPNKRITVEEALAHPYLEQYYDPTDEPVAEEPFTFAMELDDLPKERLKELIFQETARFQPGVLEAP
# UniProt P49137, whole entry, looked up: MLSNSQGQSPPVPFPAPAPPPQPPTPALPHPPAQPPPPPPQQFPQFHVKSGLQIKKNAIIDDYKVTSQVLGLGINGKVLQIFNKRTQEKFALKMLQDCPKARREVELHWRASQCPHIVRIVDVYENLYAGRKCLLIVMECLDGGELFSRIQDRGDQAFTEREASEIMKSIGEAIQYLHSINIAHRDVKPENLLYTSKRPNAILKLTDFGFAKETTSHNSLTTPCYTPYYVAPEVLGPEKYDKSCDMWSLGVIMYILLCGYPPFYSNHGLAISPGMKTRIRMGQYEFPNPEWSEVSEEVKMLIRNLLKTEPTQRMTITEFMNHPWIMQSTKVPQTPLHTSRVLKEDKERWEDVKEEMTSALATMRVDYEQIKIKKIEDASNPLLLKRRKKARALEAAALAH
# UniProt P08581: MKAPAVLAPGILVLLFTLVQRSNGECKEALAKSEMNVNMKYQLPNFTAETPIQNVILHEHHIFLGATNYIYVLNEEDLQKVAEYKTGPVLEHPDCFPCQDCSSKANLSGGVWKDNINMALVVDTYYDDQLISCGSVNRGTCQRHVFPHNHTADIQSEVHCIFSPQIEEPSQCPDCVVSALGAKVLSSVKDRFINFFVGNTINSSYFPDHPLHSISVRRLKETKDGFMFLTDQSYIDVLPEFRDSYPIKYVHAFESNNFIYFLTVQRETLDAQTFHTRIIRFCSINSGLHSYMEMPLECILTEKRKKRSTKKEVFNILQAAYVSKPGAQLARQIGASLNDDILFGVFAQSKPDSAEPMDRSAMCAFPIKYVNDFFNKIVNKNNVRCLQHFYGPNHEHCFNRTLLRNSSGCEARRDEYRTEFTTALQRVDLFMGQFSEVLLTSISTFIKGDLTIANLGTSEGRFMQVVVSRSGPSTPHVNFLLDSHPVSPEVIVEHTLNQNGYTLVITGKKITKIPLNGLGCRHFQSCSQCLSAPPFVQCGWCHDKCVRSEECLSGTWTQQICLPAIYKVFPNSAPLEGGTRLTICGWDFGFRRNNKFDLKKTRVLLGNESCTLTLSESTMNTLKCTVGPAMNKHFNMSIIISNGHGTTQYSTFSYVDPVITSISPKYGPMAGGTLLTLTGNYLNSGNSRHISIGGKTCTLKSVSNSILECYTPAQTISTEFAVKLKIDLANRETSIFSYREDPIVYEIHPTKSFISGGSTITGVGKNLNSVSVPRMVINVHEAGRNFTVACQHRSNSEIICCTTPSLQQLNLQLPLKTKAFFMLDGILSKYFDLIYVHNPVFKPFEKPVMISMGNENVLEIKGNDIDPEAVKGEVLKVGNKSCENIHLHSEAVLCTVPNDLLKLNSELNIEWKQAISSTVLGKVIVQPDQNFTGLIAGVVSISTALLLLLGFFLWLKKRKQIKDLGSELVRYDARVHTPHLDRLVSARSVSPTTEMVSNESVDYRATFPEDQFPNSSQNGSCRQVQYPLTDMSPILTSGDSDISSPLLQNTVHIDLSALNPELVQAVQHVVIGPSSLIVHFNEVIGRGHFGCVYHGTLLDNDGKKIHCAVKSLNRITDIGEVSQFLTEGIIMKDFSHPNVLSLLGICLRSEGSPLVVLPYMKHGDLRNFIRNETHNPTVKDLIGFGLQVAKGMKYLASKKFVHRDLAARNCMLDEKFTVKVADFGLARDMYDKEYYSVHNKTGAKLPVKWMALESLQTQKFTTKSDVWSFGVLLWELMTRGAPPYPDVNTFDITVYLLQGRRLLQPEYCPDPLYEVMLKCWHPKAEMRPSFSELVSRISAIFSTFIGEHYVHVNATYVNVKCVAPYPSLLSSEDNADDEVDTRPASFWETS
# This list was built around the results that the source calls inconclusive (neither active nor inactive); the mix of calls is not that of the screen. Where the call is inconclusive, the potency comes from a doubtful curve fit. Active and inactive are the calls of the source. How the source made its calls: active means hit-call score of the fitted dose curve at least 0.9, where 1 is the maximum; inconclusive means response in the unintended direction; inactive means score below 0.9.
# Molecular target: Mitogen-activated protein kinase 3 (Homo sapiens) (UniProt P27361)
# Experiment: NVS_ENZ_hMAPK3: NovaScreen (NVS) Enzymatic Assay for human Mitogen-Activated Protein Kinase 3 (MAPK 3) (AID 2283177)
# Summary of the method: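 Cell-free enzymatic assay with recombinant protein and specific substrate; fluorescence and electrophoretic mobility shift read-out 1 h after dosing. Primary screen duplicate at 25 uM; actives then run in concentration-response up to 50 uM, loss of signal versus DMSO.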
SMILES,outcome,AC50
COc1ccc(C(=CC(=O)N2CCOCC2)c2ccc(Cl)cc2)cc1OC,inactive,–
CCCN(CCC)c1c([N+](=O)[O-])cc(S(N)(=O)=O)cc1[N+](=O)[O-],–,inconclusive: 45.5 µM
O=C(O)C(F)(F)C(F)(F)C(F)(F)C(F)(F)C(F)(F)F,–,inconclusive: 25 µM
CCOCN(C(=O)CCl)c1c(C)cccc1CC,–,inconclusive: 25 µM
CC(C)(C)C(O)/C(=C\c1ccc(Cl)cc1Cl)n1cncn1 (stereo not drawn),–,inconclusive: 25 µM
CC12CC1(C)C(=O)N(c1cc(Cl)cc(Cl)c1)C2=O (stereo not drawn),–,active: 40.6 µM
CC#Cc1cc(C)nc(Nc2ccccc2)n1,inactive,–
CC[C@H](C)[C@H]1O[C@]2(C=C[C@@H]1C)C[C@@H]1C[C@@H](C/C=C(\C)[C@@H](O[C@H]3C[C@H](OC)[C@@H](O[C@H]4C[C@H](OC)[C@@H](NC)[C@H](C)O4)[C@H](C)O3)[C@@H](C)/C=C/C=C3\CO[C@@H]4[C@H](O)C(C)=C[C@@H](C(=O)O1)[C@]34O)O2,–,inconclusive: 3.57 µM

# Molecular target: human MAP Kinase-Activated Protein Kinase 2 (MAPKAPK2), MAPKAPK2 (gene 9261) (UniProt P49137)
# Experiment: NVS_ENZ_hMAPKAPK2: NovaScreen (NVS) Enzymatic Assay for human MAP Kinase-Activated Protein Kinase 2 (MAPKAPK2) (AID 2283178)
# Summary of the method: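 Cell-free recombinant human MAPKAPK2 activity measured by fluorescence with electrophoretic mobility shift separation of substrate and product, 1 hr after dosing. Loss of signal versus DMSO; primary screen at 25 uM, concentration-response up to 50 uM.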
SMILES,AC50,outcome
CCNS(=O)(=O)C(F)(F)C(F)(F)C(F)(F)C(F)(F)C(F)(F)C(F)(F)C(F)(F)C(F)(F)F,inconclusive: 40.8 µM,–
CCCN(CCC)c1c([N+](=O)[O-])cc(S(N)(=O)=O)cc1[N+](=O)[O-],inconclusive: 26.4 µM,–
Nc1ccc(N=Nc2ccccc2)cc1,inconclusive: 0.932 µM,–
O=C(O)C(F)(F)C(F)(F)C(F)(F)C(F)(F)C(F)(F)F,inconclusive: 25 µM,–
N#CCCCCC#N,inconclusive: 25 µM,–
CC1=C2C[C@H]3[C@@H](CC=C4C[C@@H](O)CC[C@@]43C)[C@@H]2CC[C@]12O[C@@H]1C[C@H](C)CN[C@H]1[C@H]2C,–,inactive
Oc1ccc(Cl)cc1Cc1ccccc1,inconclusive: 0.0715 µM,–
CC(C)(C)OOC(C)(C)C,inconclusive: 0.0012 µM,–
O=C(Oc1ccc(Br)cc1)N1CCN2CCC1CC2,–,inactive
Nc1c(Cl)cc([N+](=O)[O-])cc1Cl,–,inactive
CCC(C)c1ccc(O)cc1 (stereo not drawn),inconclusive: 25 µM,–
Nn1cnnc1,inconclusive: 0.103 µM,–

# Part of the list above, with bars between the fields.
SMILES | AC50 | outcome
Nc1ccc(N=Nc2ccccc2)cc1 | inconclusive: 0.932 µM | –
O=C(O)C(F)(F)C(F)(F)C(F)(F)C(F)(F)C(F)(F)F | inconclusive: 25 µM | –
N#CCCCCC#N | inconclusive: 25 µM | –
CC1=C2C[C@H]3[C@@H](CC=C4C[C@@H](O)CC[C@@]43C)[C@@H]2CC[C@]12O[C@@H]1C[C@H](C)CN[C@H]1[C@H]2C | – | inactive
Oc1ccc(Cl)cc1Cc1ccccc1 | inconclusive: 0.0715 µM | –
CC(C)(C)OOC(C)(C)C | inconclusive: 0.0012 µM | –

# Molecular target: human MET Proto-Oncogene, Receptor Tyrosine Kinase (MET), MET (gene 4233) (UniProt P08581)
# Experiment: NVS_ENZ_hMet: NovaScreen (NVS) Enzymatic Assay for human MET Proto-Oncogene, Receptor Tyrosine Kinase (MET) (AID 2283180)
# Summary of the method: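 Cell-free MET kinase assay using recombinant protein and fluorescent substrate, with mobility-shift separation; read 1 h after dosing. Primary duplicate at 25 uM; actives in singleton concentration-response to 50 uM maximum. Signal loss versus DMSO.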
SMILES,outcome,AC50
CCNS(=O)(=O)C(F)(F)C(F)(F)C(F)(F)C(F)(F)C(F)(F)C(F)(F)C(F)(F)C(F)(F)F,inactive,–
Cc1ccc(O)c(C)c1,inactive,–
O=C(O)C(F)(F)C(F)(F)C(F)(F)C(F)(F)C(F)(F)F,–,inconclusive: 25 µM
N#CCCCCC#N,inactive,–
CN1CSC(=S)N(C)C1,–,inconclusive: 25 µM
CC[C@H](C)[C@H]1O[C@]2(C=C[C@@H]1C)C[C@@H]1C[C@@H](C/C=C(\C)[C@@H](O[C@H]3C[C@H](OC)[C@@H](O[C@H]4C[C@H](OC)[C@@H](NC)[C@H](C)O4)[C@H](C)O3)[C@@H](C)/C=C/C=C3\CO[C@@H]4[C@H](O)C(C)=C[C@@H](C(=O)O1)[C@]34O)O2,inactive,–
Oc1cccc2cccnc12,–,inconclusive: 25 µM
Cc1ccccc1N,–,inconclusive: 25 µM
